# Experimental data published in PubChem BioAssay (EPA / NIEHS).
# The chains behind the UniProt entries cited, without tags or fusion partners. Where a name states a change or a piece, a line headed by the entry shows the natural chain unless it says otherwise.
# UniProt P20309, whole entry, looked up: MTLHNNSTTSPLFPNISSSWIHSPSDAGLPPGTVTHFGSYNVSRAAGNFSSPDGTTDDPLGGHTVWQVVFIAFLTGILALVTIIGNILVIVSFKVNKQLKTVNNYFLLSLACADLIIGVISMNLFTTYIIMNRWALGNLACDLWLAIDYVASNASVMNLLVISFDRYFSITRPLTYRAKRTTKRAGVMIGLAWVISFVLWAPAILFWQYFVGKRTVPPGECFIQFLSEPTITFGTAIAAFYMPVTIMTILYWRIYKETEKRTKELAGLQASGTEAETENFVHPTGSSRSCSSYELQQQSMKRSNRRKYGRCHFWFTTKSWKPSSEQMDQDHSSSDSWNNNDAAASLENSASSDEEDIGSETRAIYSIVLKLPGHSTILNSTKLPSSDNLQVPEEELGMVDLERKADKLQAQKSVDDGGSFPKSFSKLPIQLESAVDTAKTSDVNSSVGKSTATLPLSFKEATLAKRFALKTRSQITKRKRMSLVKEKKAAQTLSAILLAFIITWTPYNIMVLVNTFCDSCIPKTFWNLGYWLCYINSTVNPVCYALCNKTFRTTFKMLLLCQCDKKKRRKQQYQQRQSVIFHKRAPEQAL
# UniProt P35372, whole entry, looked up: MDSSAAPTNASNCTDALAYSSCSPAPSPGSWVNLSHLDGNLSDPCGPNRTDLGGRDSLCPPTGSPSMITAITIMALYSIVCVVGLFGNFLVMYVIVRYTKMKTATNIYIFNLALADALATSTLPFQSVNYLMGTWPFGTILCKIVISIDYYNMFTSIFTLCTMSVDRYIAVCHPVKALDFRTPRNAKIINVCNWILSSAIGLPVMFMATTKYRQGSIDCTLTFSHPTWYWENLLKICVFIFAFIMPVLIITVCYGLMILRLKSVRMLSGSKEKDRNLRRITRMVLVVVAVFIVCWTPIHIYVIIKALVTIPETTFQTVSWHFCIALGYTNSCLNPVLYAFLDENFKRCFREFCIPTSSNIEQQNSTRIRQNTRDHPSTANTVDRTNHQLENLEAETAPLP
# UniProt P08684, whole entry, looked up: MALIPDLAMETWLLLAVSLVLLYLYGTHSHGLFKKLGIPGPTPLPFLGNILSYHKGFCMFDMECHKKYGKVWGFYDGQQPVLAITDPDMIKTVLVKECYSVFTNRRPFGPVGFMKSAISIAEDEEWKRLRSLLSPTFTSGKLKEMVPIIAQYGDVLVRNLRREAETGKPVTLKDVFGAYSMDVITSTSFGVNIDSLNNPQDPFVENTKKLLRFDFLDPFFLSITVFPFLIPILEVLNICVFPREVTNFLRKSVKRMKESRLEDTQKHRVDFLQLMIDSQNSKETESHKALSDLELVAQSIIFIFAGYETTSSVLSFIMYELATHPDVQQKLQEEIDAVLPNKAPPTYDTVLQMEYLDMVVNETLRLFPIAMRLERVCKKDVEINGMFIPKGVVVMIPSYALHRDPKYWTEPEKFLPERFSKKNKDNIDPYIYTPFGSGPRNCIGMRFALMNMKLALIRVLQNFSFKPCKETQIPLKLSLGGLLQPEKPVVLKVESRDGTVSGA
# UniProt P20813: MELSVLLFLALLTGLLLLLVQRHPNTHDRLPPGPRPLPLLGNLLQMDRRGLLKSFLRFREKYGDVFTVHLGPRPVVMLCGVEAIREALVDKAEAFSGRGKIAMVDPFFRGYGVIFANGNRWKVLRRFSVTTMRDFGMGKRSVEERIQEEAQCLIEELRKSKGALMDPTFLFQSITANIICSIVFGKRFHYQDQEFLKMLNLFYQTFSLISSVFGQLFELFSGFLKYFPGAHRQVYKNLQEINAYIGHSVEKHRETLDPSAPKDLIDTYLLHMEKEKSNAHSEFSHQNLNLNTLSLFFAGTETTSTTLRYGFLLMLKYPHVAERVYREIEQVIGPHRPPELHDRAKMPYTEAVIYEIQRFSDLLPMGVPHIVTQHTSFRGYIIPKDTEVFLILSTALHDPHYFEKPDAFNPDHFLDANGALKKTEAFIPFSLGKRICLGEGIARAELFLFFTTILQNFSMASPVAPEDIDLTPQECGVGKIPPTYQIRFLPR
# UniProt P37231: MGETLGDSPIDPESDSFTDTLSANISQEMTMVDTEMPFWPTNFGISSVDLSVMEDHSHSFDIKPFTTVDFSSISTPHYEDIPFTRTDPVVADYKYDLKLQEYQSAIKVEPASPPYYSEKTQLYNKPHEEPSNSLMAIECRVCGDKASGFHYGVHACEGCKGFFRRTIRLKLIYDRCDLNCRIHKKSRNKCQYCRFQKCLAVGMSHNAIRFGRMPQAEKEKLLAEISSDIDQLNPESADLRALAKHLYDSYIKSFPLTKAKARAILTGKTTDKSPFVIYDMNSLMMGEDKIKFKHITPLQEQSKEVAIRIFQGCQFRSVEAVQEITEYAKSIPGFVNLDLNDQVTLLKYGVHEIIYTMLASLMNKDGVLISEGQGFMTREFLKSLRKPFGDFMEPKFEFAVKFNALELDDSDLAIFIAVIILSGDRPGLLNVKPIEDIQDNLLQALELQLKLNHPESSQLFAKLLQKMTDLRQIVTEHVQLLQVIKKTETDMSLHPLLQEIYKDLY
# UniProt P10827: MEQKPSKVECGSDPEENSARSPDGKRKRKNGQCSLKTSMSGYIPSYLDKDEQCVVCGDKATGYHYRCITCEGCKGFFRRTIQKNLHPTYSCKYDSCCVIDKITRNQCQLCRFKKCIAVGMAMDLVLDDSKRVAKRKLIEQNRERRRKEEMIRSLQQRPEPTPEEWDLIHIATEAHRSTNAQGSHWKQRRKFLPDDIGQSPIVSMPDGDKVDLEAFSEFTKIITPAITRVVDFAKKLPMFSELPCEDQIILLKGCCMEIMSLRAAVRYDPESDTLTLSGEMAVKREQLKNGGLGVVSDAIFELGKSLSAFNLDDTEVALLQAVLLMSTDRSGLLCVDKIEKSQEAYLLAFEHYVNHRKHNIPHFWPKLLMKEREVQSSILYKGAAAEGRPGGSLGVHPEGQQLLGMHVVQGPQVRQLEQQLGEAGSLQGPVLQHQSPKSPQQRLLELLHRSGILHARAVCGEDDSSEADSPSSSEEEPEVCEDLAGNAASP
# UniProt Q98867: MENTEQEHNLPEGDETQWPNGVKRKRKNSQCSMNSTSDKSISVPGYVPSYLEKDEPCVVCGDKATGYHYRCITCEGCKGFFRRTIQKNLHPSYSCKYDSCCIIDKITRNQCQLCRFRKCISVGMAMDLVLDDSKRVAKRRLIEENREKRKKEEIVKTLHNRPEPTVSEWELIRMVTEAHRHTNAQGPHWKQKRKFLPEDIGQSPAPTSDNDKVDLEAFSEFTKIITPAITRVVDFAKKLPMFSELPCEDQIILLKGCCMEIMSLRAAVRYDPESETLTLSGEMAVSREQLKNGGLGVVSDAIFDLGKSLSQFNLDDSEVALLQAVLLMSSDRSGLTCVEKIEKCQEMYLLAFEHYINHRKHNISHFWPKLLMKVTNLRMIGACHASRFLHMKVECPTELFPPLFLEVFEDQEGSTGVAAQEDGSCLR
# UniProt P33261, whole entry, looked up: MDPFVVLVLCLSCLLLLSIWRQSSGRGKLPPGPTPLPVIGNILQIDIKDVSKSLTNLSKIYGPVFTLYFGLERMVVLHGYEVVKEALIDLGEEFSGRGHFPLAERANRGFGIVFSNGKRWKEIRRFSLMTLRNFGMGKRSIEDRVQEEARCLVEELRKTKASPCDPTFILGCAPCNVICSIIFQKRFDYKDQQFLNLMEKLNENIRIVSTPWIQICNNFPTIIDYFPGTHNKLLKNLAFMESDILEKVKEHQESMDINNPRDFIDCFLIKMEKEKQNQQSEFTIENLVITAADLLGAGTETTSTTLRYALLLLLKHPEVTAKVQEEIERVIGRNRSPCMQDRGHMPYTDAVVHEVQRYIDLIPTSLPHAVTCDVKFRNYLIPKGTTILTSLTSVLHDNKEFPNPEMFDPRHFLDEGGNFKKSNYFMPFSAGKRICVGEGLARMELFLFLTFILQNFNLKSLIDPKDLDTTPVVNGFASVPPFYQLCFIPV
# UniProt P21917, whole entry, looked up: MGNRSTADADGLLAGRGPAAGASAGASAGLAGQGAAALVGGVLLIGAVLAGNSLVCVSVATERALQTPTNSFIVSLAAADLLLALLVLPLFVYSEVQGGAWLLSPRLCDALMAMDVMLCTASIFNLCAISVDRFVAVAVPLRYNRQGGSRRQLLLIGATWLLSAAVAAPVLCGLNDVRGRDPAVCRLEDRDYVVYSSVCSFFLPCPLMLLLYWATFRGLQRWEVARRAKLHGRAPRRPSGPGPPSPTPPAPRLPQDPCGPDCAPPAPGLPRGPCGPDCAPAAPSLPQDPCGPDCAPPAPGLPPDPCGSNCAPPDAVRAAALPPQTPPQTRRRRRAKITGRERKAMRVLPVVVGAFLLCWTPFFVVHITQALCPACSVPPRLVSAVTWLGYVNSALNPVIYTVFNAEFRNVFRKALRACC
# UniProt P08659, whole entry, looked up: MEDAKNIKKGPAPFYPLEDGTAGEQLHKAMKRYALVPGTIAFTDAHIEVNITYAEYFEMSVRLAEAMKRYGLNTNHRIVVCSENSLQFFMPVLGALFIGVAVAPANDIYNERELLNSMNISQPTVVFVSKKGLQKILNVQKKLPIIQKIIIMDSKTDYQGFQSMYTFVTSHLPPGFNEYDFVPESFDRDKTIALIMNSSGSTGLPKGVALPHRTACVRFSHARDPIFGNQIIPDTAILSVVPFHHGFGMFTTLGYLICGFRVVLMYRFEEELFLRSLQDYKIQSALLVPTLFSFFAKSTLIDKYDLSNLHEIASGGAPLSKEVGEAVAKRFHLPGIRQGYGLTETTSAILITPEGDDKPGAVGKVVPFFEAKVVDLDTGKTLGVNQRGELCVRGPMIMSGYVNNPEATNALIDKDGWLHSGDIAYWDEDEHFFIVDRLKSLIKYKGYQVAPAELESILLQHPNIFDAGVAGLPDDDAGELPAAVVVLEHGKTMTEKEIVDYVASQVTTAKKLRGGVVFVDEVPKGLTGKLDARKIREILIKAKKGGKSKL
# UniProt P10275: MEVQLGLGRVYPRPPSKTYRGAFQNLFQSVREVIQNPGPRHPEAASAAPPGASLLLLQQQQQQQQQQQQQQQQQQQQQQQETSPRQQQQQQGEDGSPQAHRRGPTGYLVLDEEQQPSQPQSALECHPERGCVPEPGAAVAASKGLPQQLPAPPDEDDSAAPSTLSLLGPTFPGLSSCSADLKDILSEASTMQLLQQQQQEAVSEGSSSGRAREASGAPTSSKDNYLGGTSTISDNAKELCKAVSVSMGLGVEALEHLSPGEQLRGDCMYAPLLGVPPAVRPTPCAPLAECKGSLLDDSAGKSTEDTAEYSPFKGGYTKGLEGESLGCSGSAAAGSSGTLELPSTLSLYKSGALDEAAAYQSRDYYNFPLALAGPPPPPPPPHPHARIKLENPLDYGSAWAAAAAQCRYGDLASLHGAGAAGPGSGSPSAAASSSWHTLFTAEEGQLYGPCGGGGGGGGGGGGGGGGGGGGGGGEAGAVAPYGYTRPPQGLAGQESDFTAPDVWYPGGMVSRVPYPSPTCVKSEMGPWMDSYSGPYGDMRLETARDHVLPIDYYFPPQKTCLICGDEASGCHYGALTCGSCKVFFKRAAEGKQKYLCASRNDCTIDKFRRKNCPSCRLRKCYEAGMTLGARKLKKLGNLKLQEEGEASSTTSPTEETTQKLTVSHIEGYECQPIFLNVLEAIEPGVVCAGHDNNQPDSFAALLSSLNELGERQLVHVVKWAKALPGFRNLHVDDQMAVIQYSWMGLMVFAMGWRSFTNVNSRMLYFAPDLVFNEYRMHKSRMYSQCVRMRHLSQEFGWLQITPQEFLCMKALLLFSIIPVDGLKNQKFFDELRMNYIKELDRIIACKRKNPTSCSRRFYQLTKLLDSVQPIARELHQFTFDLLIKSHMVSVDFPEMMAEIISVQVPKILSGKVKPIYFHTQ
# UniProt Q95136, whole entry, looked up: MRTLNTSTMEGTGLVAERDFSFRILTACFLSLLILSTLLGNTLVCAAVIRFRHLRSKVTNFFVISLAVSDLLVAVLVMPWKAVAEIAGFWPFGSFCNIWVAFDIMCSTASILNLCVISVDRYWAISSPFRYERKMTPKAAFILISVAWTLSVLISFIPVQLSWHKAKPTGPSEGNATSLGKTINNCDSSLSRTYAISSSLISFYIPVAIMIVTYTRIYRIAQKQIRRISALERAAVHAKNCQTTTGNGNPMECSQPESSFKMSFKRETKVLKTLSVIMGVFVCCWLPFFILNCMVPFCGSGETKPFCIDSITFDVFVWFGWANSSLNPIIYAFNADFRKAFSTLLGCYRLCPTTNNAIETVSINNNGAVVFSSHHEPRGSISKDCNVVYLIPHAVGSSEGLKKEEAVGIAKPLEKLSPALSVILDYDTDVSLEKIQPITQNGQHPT
# Inconclusive means that the source gave no clear call. Such entries were picked first, then a sample of the others. For some assays here: Potencies of inconclusive entries are doubtful fits and often do not repeat. Active and inactive are the calls of the source. The calls were made as follows: active = hit-call score of the fitted dose curve at least 0.9, where 1 is the maximum; inconclusive = response in the unintended direction; inactive = score below 0.9.
# How the values were obtained:
# [1] = biological target: Muscarinic acetylcholine receptor M3 (Homo sapiens) (UniProt P20309); experiment: NVS_GPCR_hM3: NovaScreen (NVS) G Protein-Coupled Receptor Assay for human Muscarinic, M3 Receptor (AID 2283272)
# Procedure, shortened: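 Radioligand displacement binding on human M3 receptor in CHO-derived membranes, 1 h incubation, filter-based scintillation counting. Primary screen in duplicate at 25 uM; actives followed up in concentration series; loss of signal versus DMSO.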
# [2] = biological target: human Opioid Receptor Mu (Opiate Mu), OPRM1 (gene 4988) (UniProt P35372); experiment: NVS_GPCR_hOpiate_mu: NovaScreen (NVS) G Protein-Coupled Receptor Assay for human Opioid Receptor Mu (Opiate Mu) (AID 2283290);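 also: hits lower bound tracer signal versus DMSO meaning displacement of the ligand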
# Procedure, shortened: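 CHO-derived receptor protein, cell-free; radioligand displacement, filtration + scintillation counting, read at 2.5 h. DMSO = negative control/baseline. Primary: 25 uM single conc, duplicate; secondary: concentration series.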
# [3] = read-out: Cytochrome P450 3A4 (Homo sapiens) (UniProt P08684); experiment: CLD_CYP3A4_24hr: CellzDirect (CLD) Gene Expression Assay for xenobiotic metabolism (CYP3A4) at 24 hours (AID 2283689)
# Procedure, shortened: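 Primary human hepatocytes from two donors dosed daily with fresh compound for two days, 0.2% DMSO vehicle. CYP3A4 mRNA at 24 hr by qNPA chemiluminescence; gain-of-signal fit versus DMSO, cytotoxicity flagged by morphology.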
# [4] = read-out: Cytochrome P450 2B6 (Homo sapiens) (UniProt P20813); experiment: CLD_CYP2B6_48hr: CellzDirect (CLD) Gene Expression Assay for xenobiotic metabolism (CYP2B6) at 48 hours (AID 2283699);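 also: actives raise transcript level above DMSO so potency reflects induction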
# Procedure, shortened: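 Primary human hepatocytes dosed daily for two days over multiple concentrations, 0.2% DMSO vehicle; CYP2B6 mRNA quantified at 48 h by qNPA chemiluminescence. Induction fitted as gain of signal versus DMSO; cytotoxicity annotated by morphology.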
# [5] = read-out: xenobiotic metabolism (CYP1A2), CYP1A2 (gene 1544); experiment: CLD_CYP1A2_48hr: CellzDirect (CLD) Gene Expression Assay for xenobiotic metabolism (CYP1A2) at 48 hours (AID 2283703)
# Procedure, shortened: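 Primary human hepatocytes from two donor preparations were dosed daily for two days at multiple concentrations in 0.2% DMSO vehicle. CYP1A2 mRNA was measured at 48 hours by chemiluminescent quantitative nuclease protection assay, with gain of signal fitted versus DMSO and cytotoxicity annotated from morphology.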
# [6] = system: frog Estrogen Receptor (ESR1), gene 398734; experiment: ATG_frER1_XSP1: Attagene TRANS-FACTORIAL Multi-Species (XSP1) HepG2 Assay for frog Estrogen Receptor (ESR1) (AID 2283777)
# Procedure, shortened: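 Read-out: fluorescent reporter mRNA via RT-PCR, HpaI digestion and capillary electrophoresis, after 24 h chemical exposure of transiently transfected human HepG2 cells expressing exogenous NR-Gal4 chimeras. DMSO served as baseline for positive-direction fitting.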
# [7] = biological target: Peroxisome proliferator-activated receptor gamma (Homo sapiens) (UniProt P37231); experiment: ATG_hPPARg_XSP1: Attagene TRANS-FACTORIAL Multi-Species (XSP1) HepG2 Assay for human Peroxisome Proliferator-activated Receptor gamma (PPARg) (AID 2283800)
# Procedure, shortened: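 HepG2 cells transiently transfected with GAL4-UAS reporter units carrying chimeric NR-Gal4 proteins; 3 nM 6-alpha-fluorotestosterone present. After 24 h dosing, reporter mRNA quantified by RT-PCR and capillary electrophoresis; gain of signal relative to DMSO.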
# [8] = biological target: human Thyroid hormone Receptor alpha (TRa), THRA (gene 7067) (UniProt P10827); experiment: ATG_hTRa_XSP1: Attagene TRANS-FACTORIAL Multi-Species (XSP1) HepG2 Assay for human Thyroid hormone Receptor alpha (TRa) (AID 2283805)
# Procedure, shortened: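 HepG2 cells transiently transfected with GAL4-UAS reporter units expressing chimeric NR-Gal4 proteins, dosed 24 hours with 3 nM 6-alpha-fluorotestosterone present. Reporter mRNA measured by RT-PCR and capillary electrophoresis; gain of signal fitted versus DMSO.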
# [9] = biological target: zebrafish Thyroid Hormone Receptor alpha (TRa), thraa (gene 30670) (UniProt Q98867); experiment: ATG_zfTRa_XSP1: Attagene TRANS-FACTORIAL Multi-Species (XSP1) HepG2 Assay for zebrafish Thyroid Hormone Receptor alpha (TRa) (AID 2283807)
# Procedure, shortened: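 HepG2 cells transiently transfected with GAL4-UAS reporter units including a zebrafish TRa–Gal4 chimera, dosed 24 h with 3 nM 6-alpha-fluorotestosterone present. Reporter mRNA quantified by RT-PCR and capillary electrophoresis; gain versus DMSO.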
# [10] = biological target: Bile acid receptor (Homo sapiens) (UniProt Q96RI1); experiment: NVS_NR_hFXR_Agonist: NovaScreen (NVS) Nuclear Receptor Binding Assay for human Farnesoid X Receptor Agonism (FXR) (AID 2283347)
# Procedure, shortened: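 Cell-free TR-FRET binding assay with extracted human FXR protein, agonist format, read 1 h after dosing. Primary screen at 25 uM single concentration in duplicate, actives retested in concentration series; gain of signal versus DMSO.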
# [11] = read-out: xenobiotic metabolism (CYP1A2), CYP1A2 (gene 1544); experiment: CLD_CYP1A2_6hr: CellzDirect (CLD) Gene Expression Assay for xenobiotic metabolism (CYP1A2) at 6 hours (AID 2283663);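 also: potency is for induction meaning a rise in mRNA above DMSO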
# Procedure, shortened: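 Primary human hepatocytes from two donor preparations, dosed daily with multiple concentrations in 0.2% DMSO and harvested at 6 h. CYP1A2 mRNA induction measured by chemiluminescent qNPA, gain of signal fitted against DMSO; cytotoxicity flagged morphologically.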
# [12] = read-out: Cytochrome P450 3A4 (Homo sapiens) (UniProt P08684); experiment: CLD_CYP3A4_48hr: CellzDirect (CLD) Gene Expression Assay for xenobiotic metabolism (CYP3A4) at 48 hours (AID 2283698)
# Procedure, shortened: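 Primary human hepatocytes from two donor preparations dosed daily for two days with multiple chemical concentrations, 0.2% DMSO vehicle. CYP3A4 mRNA at 48 h by quantitative nuclease protection assay, chemiluminescence, positive fit versus DMSO; cytotoxicity flagged morphologically.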
# [13] = biological target: Sodium channel protein type 1 subunit alpha (Rattus norvegicus) (UniProt P04774); experiment: NVS_IC_rNaCh_site2: NovaScreen (NVS) Ion Channel Assay for rat Sodium Channel, Site 2 (NaCh) (AID 2283322);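 also: hit means loss of radioligand binding signal relative to DMSO so AC50 marks displacement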
# Procedure, shortened: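 Membranes: rat forebrain. Format: competitive radioligand displacement, filter separation, scintillation readout, 1 h exposure. Primary screen in duplicate at 25 uM; actives retested in concentration series.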
# [14] = IUF_NPC5_oligodendrocyte_differentiation_120hr: Leibniz Research Institute for Environmental Medicine (IUF) 120-hour Oligodendrocyte Differentiation Assay (NPC5) (AID 2284304);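 also: primary human fetal neural progenitor spheres plated to migrate and differentiate; share of O4-positive cells among Hoechst nuclei found by CNN image analysis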
# Procedure, shortened: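 Primary human fetal (GW 16-19) neural progenitor spheres (0.3 mm) plated on poly-D-lysine/laminin in N2 differentiation medium, exposed from day 0 for 120 h with half-medium refresh at day 3; O4-positive cells as percent of Hoechst nuclei, CNN-identified, versus DMSO.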
# [15] = NVS_IC_rCaBTZCHL: NovaScreen (NVS) Ion Channel Assay for Calcium Channel, Type L, Benzothiazepine Site (CaBTZCHL) (AID 2283337)
# Procedure, shortened: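 Radioligand binding to the benzothiazepine site of L-type Ca channels in rat cortical membranes (cell-free), 1.5 h after dosing; filter-based scintillation counting. Loss of signal relative to DMSO baseline; primary single-concentration screen at 25 uM, actives then run in concentration series.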
# [16] = biological target: Cytochrome P450 2C19 (Homo sapiens) (UniProt P33261); experiment: NVS_ADME_hCYP2C19: NovaScreen (NVS) CYP450-related Enzyme Activity (ADME) Assay for human CYP2C19 (AID 2283113);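 also: potency for inhibition seen as loss of fluorescent signal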
# Procedure, shortened: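 Cell-free assay of recombinant human CYP2C19 expressed in insect cells, with a fluorogenic substrate; fluorescence intensity read 1 hour after dosing. Loss of signal relative to acetonitrile negative control indicates inhibition. Primary screen at 10 uM in duplicate, then concentration series.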
# [17] = biological target: human Dopamine Receptor D4.4 (DRD4.4), DRD4 (gene 1815) (UniProt P21917); experiment: NVS_GPCR_hDRD4.4: NovaScreen (NVS) G Protein-Coupled Receptor Assay for human Dopamine Receptor D4.4 (DRD4.4) (AID 2283264)
# Procedure, shortened: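 Radioligand displacement on human DRD4.4 from CHO-derived membranes, 1 hour incubation, bound counts read by filtration and scintillation. Primary screen in duplicate at 25 uM; actives followed up in concentration series.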
# [18] = biological target: Luciferin 4-monooxygenase (Photinus pyralis) (UniProt P08659); experiment: CCTE_Simmons_QuantiLum_inhib_2: CCTE's Firefly Luciferase Inhibition Assay, Simmons Lab (AID 2283767);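 also: potency for inhibitors that lower luciferase luminescence relative to DMSO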
# Procedure, shortened: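 Recombinant firefly luciferase (5 ng/well, 200 mM potassium phosphate with 1 mg/ml BSA) was exposed to 8 concentrations from 5 nM to 87.5 uM (final, 0.5% DMSO) for 30 min at 37C in the dark. Loss of luminescence versus DMSO was read after injecting D-luciferin/ATP-analogue reagent.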
# [19] = biological target: Nucleoli Translocation, AR (gene 367) (UniProt P10275); experiment: UPITT_HCI_U2OS_AR_TIF2_Nucleoli_Antagonist: University of Pittsburgh U2OS Androgen Receptor-Transcriptional Intermediary Factor 2 (AR-TIF2) Antagonism High Content Imaging Assay for Nucleoli Translocation (AID 2283997)
# Procedure, shortened: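 U2OS cells expressing RFP-tagged human AR and GFP-tagged TIF2 were imaged by high-content fluorescence microscopy for red AR signal in the nucleolar region. Compounds were screened at 20 uM final (0.2% DMSO), with activity fitted relative to DHT as baseline.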
# [20] = biological target: bovine Dopamine Receptor (DR), Non-selective Binding, DRD1 (gene 281125) (UniProt Q95136); experiment: NVS_GPCR_bDR_NonSelective: NovaScreen (NVS) G Protein-Coupled Receptor Assay for bovine Dopamine Receptor (DR), Non-selective Binding (AID 2283241)
# Procedure, shortened: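 Bovine striatal membranes; radioligand displacement read by filtration and scintillation counting 1 h after dosing, loss of signal vs DMSO. Screened in duplicate at 25 uM, then concentration-response for hits.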
smiles,measurement,setting,value
Oc1ccc(C(c2ccc(O)cc2)C(Cl)(Cl)Cl)cc1,outcome,[1],inactive
same,AC50,[2],active: 3.58 µM
same,AC50,[3],inconclusive: 1.89 µM
same,AC50,[4],inconclusive: 0.00944 µM
same,AC50,[5],inconclusive: 0.303 µM
same,AC50,[6],inconclusive: 0.00992 µM
same,outcome,[7],inactive
same,AC50,[8],inconclusive: 10 µM
same,outcome,[9],inactive
CCOC(=O)NCCOc1ccc(Oc2ccccc2)cc1,AC50,[10],inconclusive: 25 µM
same,AC50,[11],inconclusive: 20 µM
same,outcome,[12],inactive
O=C(c1ccccc1)c1ccc(Cl)cc1,AC50,[13],inconclusive: 0.0935 µM
c1ccc2scnc2c1,AC50,[14],inconclusive: 75.1 µM
CCCCCCCCCCC(CO)CCCCCCCC (stereo not given),AC50,[15],inconclusive: 0.0466 µM
CCOC(=O)CC(CC(=O)OCC)(OC(C)=O)C(=O)OCC,AC50,[16],inconclusive: 10 µM
Oc1ccc2ccccc2c1,outcome,[17],inactive
same,AC50,[18],inconclusive: 0.097 µM
same,outcome,[19],inactive
Cc1cn([C@H]2C=C[C@@H](CO)O2)c(=O)[nH]c1=O,AC50,[20],inconclusive: 0.145 µM

# Random excerpt: 2 entries already listed, in no set order.
smiles,measurement,setting,value
O=C(c1ccccc1)c1ccc(Cl)cc1,AC50,[13],inconclusive: 0.0935 µM
Oc1ccc(C(c2ccc(O)cc2)C(Cl)(Cl)Cl)cc1,AC50,[4],inconclusive: 0.00944 µM
